Data source: PubChem BioAssay AID652272 (Drosophila RNAi Screening Center, 2013)
In all, the deposit lists about 21,000 reagents; below is an unselected part of those that have a named target and a result. Over the whole deposit, 503 (2.4%) were called active. 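Raw plate light values, not normalised; calls rest on replicate z-scores that were not deposited; hits include reporter decreases as well as increases.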 Unmarked entries are inactive. Names joined by + are all predicted targets of the reagent. Not stated in the record: the amount of reagent, the time to read-out.

- Test: 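Genome-wide knock-down search for components of Hedgehog signalling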 (primary screen)
- System: Drosophila clone 8 (Cl8) cells
- Reagents: long dsRNA against Drosophila genes
- Detection: 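Firefly light from a Hedgehog-responsive ptc promoter reporter and Renilla reference light, both read on a plate reader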
- Scale: firefly Hh reporter signal: higher = more ptc reporter light; Renilla reference signal: higher = more Renilla control light
- Active means: 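Hit when the z-score averaged over two replicates is under -2 or over +3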
- Meaning of the calls: active = hit: reporter lowered or raised; inactive = not a hit

| gene | amplicon | firefly Hh reporter signal, replicate 1 | firefly Hh reporter signal, replicate 2 | firefly Hh reporter signal, replicate 3 | Renilla reference signal, replicate 1 | Renilla reference signal, replicate 2 |
| --- | --- | --- | --- | --- | --- | --- |
| CAP | DRSC05215 | 1.89e5 | 2.84e5 | – | 4678 | 12717 |
| CAP | DRSC06743 | 90080 | 35885 | – | 2704 | 1112 |
| CAP | DRSC06744 | 1.12e5 | 48109 | – | 2662 | 4998 |
| CAP | DRSC06745 | 1.01e5 | 69260 | – | 2310 | 5899 |
| CAP | DRSC06846 | 1.12e5 | 63440 | – | 2458 | 4508 |
| CG42354 + CG42353 | DRSC20172 | 59114 | 50519 | – | 1842 | 1221 |
| CG32221 | DRSC09638 | 2.49e5 | – | – | 5001 | – |
| dpr1 (defective proboscis extension response 1) | DRSC05906 | 97346 | 1.51e5 | – | 3338 | 7888 |
| dpr1 (defective proboscis extension response 1) | DRSC06399 | 1.15e5 | 57778 | – | 4243 | 4240 |
| Icmt (Isoprenylcysteine carboxyl methyltransferase) | DRSC09834 | 52755 | 52074 | 74464 | 5577 | 5345 |
| CG7276 | DRSC10797 | 1.15e5 | – | – | 4008 | 2944 |
| Arf4 (ADP ribosylation factor 4) | DRSC17195 | 48313 | 1.32e5 | – | 1667 | 6986 |
| eIF5 (eukaryotic translation initiation factor 5) | DRSC20165 | 64103 | 65945 | – | 2284 | 2107 |
| Rpn13 (Regulatory particle non-ATPase 13) | DRSC06379 | 86519 | 47971 | – | 2139 | 3321 |
| CG3526 | DRSC17240 | 5.16e5 | 1.89e5 | – | 28106 | 3746 |
| CG3526 | DRSC18636 | 97107 | 1.94e5 | – | 3481 | 6778 |
| CG4577 | DRSC00658 | 1.23e5 | 1.06e5 | – | 2832 | 2723 |
| CG33255 (retired record) + CR42842 + hpRNA:CR32205 + 1 more | DRSC09617 | 2.75e5 | – | – | 6433 | – |
| PPYR1 (Protein phosphatase Y regulator 1) | DRSC19612 | 1.21e5 | 2.39e5 | – | 4224 | 10115 |
| CG15333 | DRSC18016 | 69286 | 1.48e5 | – | 2352 | 5885 |
| CG15333 | DRSC18153 | 74843 | 1.78e5 | – | 2586 | 6640 |
| hec (hector) | DRSC19895 | 1.02e5 | 2.20e5 | – | 2480 | 8745 |
| EMC10 (ER membrane protein complex subunit 10) | DRSC11850 | 93466 | 89337 | – | 3240 | 2577 |
| verm (vermiform) | DRSC11038 | 85964 | 84736 | – | 3777 | 3418 |
| tpr (tracheal-prostasin) | DRSC04468 | 67307 | 55712 | – | 2701 | 2291 |

5 entries already listed, sorted by “Renilla reference signal, replicate 1”, highest first:
| gene | amplicon | firefly Hh reporter signal, replicate 1 | firefly Hh reporter signal, replicate 2 | firefly Hh reporter signal, replicate 3 | Renilla reference signal, replicate 1 | Renilla reference signal, replicate 2 |
| --- | --- | --- | --- | --- | --- | --- |
| Icmt (Isoprenylcysteine carboxyl methyltransferase) | DRSC09834 | 52755 | 52074 | 74464 | 5577 | 5345 |
| dpr1 (defective proboscis extension response 1) | DRSC06399 | 1.15e5 | 57778 | – | 4243 | 4240 |
| CG7276 | DRSC10797 | 1.15e5 | – | – | 4008 | 2944 |
| eIF5 (eukaryotic translation initiation factor 5) | DRSC20165 | 64103 | 65945 | – | 2284 | 2107 |
| Arf4 (ADP ribosylation factor 4) | DRSC17195 | 48313 | 1.32e5 | – | 1667 | 6986 |

The results go on.
| gene | amplicon | firefly Hh reporter signal, replicate 1 | firefly Hh reporter signal, replicate 2 | firefly Hh reporter signal, replicate 3 | Renilla reference signal, replicate 1 | Renilla reference signal, replicate 2 |
| --- | --- | --- | --- | --- | --- | --- |
| CG13560 | DRSC04198 | 1.03e5 | 81066 | – | 2640 | 7155 |
| Rab2 | DRSC05017 | 1.16e5 | 47653 | – | 4416 | 2016 |
| Cnep1r2 (CTD nuclear envelope phosphatase 1 regulatory subunit 2) | DRSC10950 | 1.06e5 | 1.08e5 | – | 4796 | 4066 |
| CG43193 (retired record) | DRSC20426 | 5.76e5 | 2.25e5 | – | 34528 | 4308 |
| nesd (nessun dorma) | DRSC02099 | 95505 | 71712 | – | 3131 | 2505 |
| VhaPPA1-2 (Vacuolar H[+] ATPase PPA1 subunit 2) | DRSC16176 | 96663 | 1.12e5 | – | 2444 | 2741 |
| CG43394 | DRSC01013 | 4.37e5 | 2.08e5 | – | 22072 | 7916 |
| CG13616 | DRSC14619 | 5.50e5 | 1.01e5 | – | 27990 | 3581 |
| Vha16-3 (Vacuolar H[+] ATPase 16kD subunit 3) | DRSC10872 | 34289 | 51954 | 51251 | 3884 | 3251 |
| CG10343 | DRSC02041 | 70333 | 38137 | – | 1050 | 3552 |
| CG3552 | DRSC10370 | 56195 | 64487 | 50369 | 5737 | 3644 |
| rictor (rapamycin-insensitive companion of Tor) | DRSC20071 | 71552 | 2.18e5 | – | 2342 | 8935 |
| eIF4E1 (eukaryotic translation initiation factor 4E1) | DRSC11342 | 1.16e5 (active) | 72289 | – | 2971 | 1850 |
| CG10428 | DRSC02054 | 74681 | 71041 | – | 3298 | 3160 |
| Best2 (Bestrophin 2) | DRSC09712 | 49644 | 59408 | – | 3523 | 4508 |
| garz (gartenzwerg) | DRSC07193 | 80040 | 31863 | – | 2338 | 3058 |
| CG17385 | DRSC06664 | 89260 | 52793 | – | 2252 | 3495 |
| CG4842 | DRSC10453 | 1.42e5 | – | – | 1381 | 4465 |
| CG14868 | DRSC14991 | 4.84e5 | 77328 | – | 2266 | 2266 |
| Acsl (Acyl-CoA synthetase long-chain) | DRSC07252 | 73991 | 35649 | – | 3773 | 1748 |
| CG10139 | DRSC05972 | 1.19e5 | 68841 | – | 2453 | 1040 |
| CG1764 | DRSC19779 | 1.10e5 | 95048 | – | 3034 | 2525 |
| CG43260 (retired record) | DRSC19313 | 7.40e5 | 2.31e5 | – | 41922 | 5521 |
| CG12362 | DRSC09884 | 64566 | 51186 | 93916 | 4769 | 6004 |
| CG43317 | DRSC15000 | 59337 | 78041 | – | 1074 | 2165 |
| CG8818 | DRSC07275 | 60793 | 36378 | – | 3293 | 1450 |
| CG14857 | DRSC14981 | 80199 | 61152 | – | 2839 | 1881 |
| Nacalpha (Nascent polypeptide associated complex protein alpha subunit) | DRSC07477 | 64153 | 41959 | – | 3428 | 1738 |
| CG11417 | DRSC18581 | 52227 | 72827 | – | 917 | 2084 |
| WDR79 (WD repeat domain 79) | DRSC03159 | 73936 | 80080 | – | 2912 | 2964 |
| Or49b (Odorant receptor 49b) | DRSC07494 | 80245 | 52128 | – | 2076 | 3749 |
| CG10559 | DRSC14255 | 5.06e5 | 66706 | – | 30151 | 1696 |
| CG11920 | DRSC14439 | 89120 | 56188 | – | 3889 | 2267 |
| CR42785 (pseudo) | DRSC04962 | 1.61e5 | 1.78e5 | – | 4048 | 8125 |
| mRpL38 (mitochondrial ribosomal protein L38) | DRSC19734 | 66807 | 2.19e5 | – | 2233 | 9540 |
| Cad96Ca (Cadherin 96Ca) | DRSC14220 | 4.86e5 | 79623 | – | 23368 | 5699 |
| Cad96Ca (Cadherin 96Ca) | DRSC16693 | 5.79e5 | 96023 | – | 28551 | 7376 |
| gukh (GUK-holder) | DRSC14768 | 4.36e5 | 72265 | – | 24176 | 1808 |
| gukh (GUK-holder) | DRSC15806 | 5.61e5 | 1.18e5 | – | 32482 | 3285 |
| gukh (GUK-holder) | DRSC15944 | 1.23e5 | 61469 | – | 5216 | 2752 |
| cer (crammer) | DRSC05992 | 1.16e5 | 74544 | – | 3025 | 5634 |
| Polr3A (RNA polymerase III subunit A) | DRSC19766 | 64249 | 1.61e5 | – | 2523 | 7209 |
| pwn (pawn) | DRSC06035 | 1.28e5 | 74970 | – | 2902 | 6833 |
| RhoGAP15B (Rho GTPase activating protein at 15B) | DRSC19924 | 80881 | 84797 | – | 1991 | 2311 |
| RhoGAP15B (Rho GTPase activating protein at 15B) | DRSC19925 | 80243 | 1.81e5 | – | 2167 | 8160 |
| Fur2 (Furin 2) | DRSC19817 | 59476 | 1.55e5 | – | 1348 | 6214 |
| pnt (pointed) | DRSC17028 | 5.24e5 (active) | 68057 | – | 19541 | 1608 |
| Fsn (F-box synaptic protein) | DRSC06875 | 1.09e5 | 94305 | – | 4313 | 3223 |
